No constants are given. Whether binding was seen depends on the method and setting. Some binding calls cover weakened binding; strength is not graded here.
Biological target: T1, full length human PSGL-1 on heparan sulfate-deficient CHO cells (pGSD-677) (human) (UniProt Q14242)
T1 sequence: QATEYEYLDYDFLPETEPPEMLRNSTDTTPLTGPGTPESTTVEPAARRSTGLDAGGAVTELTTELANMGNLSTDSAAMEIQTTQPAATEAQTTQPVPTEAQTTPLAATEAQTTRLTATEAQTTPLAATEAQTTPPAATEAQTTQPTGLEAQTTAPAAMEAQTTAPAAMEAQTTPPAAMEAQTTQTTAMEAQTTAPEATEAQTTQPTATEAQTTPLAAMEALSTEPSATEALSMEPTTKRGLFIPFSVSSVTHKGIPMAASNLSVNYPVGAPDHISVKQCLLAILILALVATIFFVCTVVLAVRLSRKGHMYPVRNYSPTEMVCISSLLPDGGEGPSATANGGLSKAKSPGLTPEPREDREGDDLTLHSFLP
Assay: flow cytometry, VISTA multimer staining of heparan sulfate-deficient CHO cells transfected with human PSGL-1, pH 6.0

Protein sequences, listed by entry. Tags and fused reporters are not part of them. Residues count along the entry.
UniProt Q9H7M9, residues 33-194: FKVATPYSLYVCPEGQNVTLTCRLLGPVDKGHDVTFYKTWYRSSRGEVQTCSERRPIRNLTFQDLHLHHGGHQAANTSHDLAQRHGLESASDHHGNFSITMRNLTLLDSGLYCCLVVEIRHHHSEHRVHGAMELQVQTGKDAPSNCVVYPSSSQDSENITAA

“recombinant hVISTA ECD multimer (monobiotinylated hVISTA ECD on PE-streptavidin dextramers) (from UniProt Q9H7M9 33-194) (receptor)” was tested, and the binding was “binds”.

From patent US20240092907A1
